This is one part of the list. Single values are uncertain here, since repeats match poorly.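 The cells were human embryonic kidney cells carrying a Renilla luciferase gene, driven by the HSV-TK promoter, on a plasmid put in briefly by transfection. This is the first-round screen of about ten thousand compounds, looking for ones that raise reporter output.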
These molecules were tested on HEK 293FT (assay: log relative Renilla luciferase luminescence (reporter expression vs reference, reference not stated) (log (base not stated)); higher = higher recombinant reporter expression). Conditions: 10 µM; time after transfection 48 h.

| Structure (SMILES) | log |
| --- | --- |
| CCCCCCCCC1CC1C(=O)O (centres undefined) [Cyclopropanecarboxylate-octyl] | 0.121 |
| C[C@@H]1C[C@H]2[C@@H]3CCC4=CC(=O)C=C[C@]4(C)[C@@]3(Cl)[C@@H](O)C[C@]2(C)[C@@]1(OC(=O)c1ccco1)C(=O)CCl [Mometasone Furoate] | -0.299 |
| CC(=O)OCC(=O)[C@@]1(O)CC[C@H]2[C@@H]3CCC4=CC(=O)C=C[C@]4(C)[C@H]3C(=O)C[C@@]21C [Prednisone acetate] | 0.00722 |
| Cc1ncc([N+](=O)[O-])n1CCOC(=O)c1ccccc1 [Metronidazole Benzoate] | -0.196 |
| N#Cc1c2c(c(Nc3ccc(F)cc3)n3c1nc1ccccc13)CCCC2 | 0.121 |
| NNC(=O)CP(=O)(c1ccccc1)c1ccccc1 [Fosenazide] | -0.0558 |
| c1ccc2[nH]c(-c3cscn3)nc2c1 [Tiabendazole] | 0.0555 |
| Cc1cc(=O)[nH]c(Nc2nc3ccccc3[nH]2)n1 | 0.0486 |
| CN1CCN(c2cc3c(cc2F)c(=O)c(C(=O)O)cn3CCF)CC1 | -0.169 |
| CCOC(=O)c1c(C)n(C)c2ccc(O)cc12 [Mecarbinate] | -0.809 |
| Cc1ccnc(NS(=O)(=O)c2ccc(N)cc2)n1 [Sulfamerazine] | 0.097 |
| CC(C)c1c(C(=O)Nc2ccccc2)c(-c2ccccc2)c(-c2ccc(F)cc2)n1CC[C@@H](O)C[C@@H](O)CC(=O)O [Atorvastatin Calcium] | -0.328 |
| O=C(COc1ccc(Cl)cc1)N1CCN(Cc2ccc3c(c2)OCO3)CC1 [Fipexide] | 0.0884 |
| CC(=O)Oc1cccc2c1C(=O)c1c(OC(C)=O)cc(C(=O)O)cc1C2=O [Diacerein] | -0.32 |

Another view of some results above.
N#Cc1c2c(c(Nc3ccc(F)cc3)n3c1nc1ccccc13)CCCC2
  log: 0.121
NNC(=O)CP(=O)(c1ccccc1)c1ccccc1 [Fosenazide]
  log: -0.0558

From the supplement of paper PMC7024190
